Taken from: PubChem BioAssay AID652243 (Drosophila RNAi Screening Center, 2013)

Assay: 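Fly genes required for human androgen receptor driven transcription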 (primary screen)
System: Drosophila S2R+ cells
Reagents: long dsRNA against Drosophila genes
Timing: 72 h (48 h, then 24 h hormone)
Challenge: synthetic androgen R1881 at 10 nM for 24 h
Measurement: 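Firefly light from an androgen-responsive reporter and Renilla control light per well, raw and unnormalised, for each of two replicates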
Direction: firefly reporter light: higher = more light from androgen-responsive reporter; Renilla control light: higher = more constitutive control signal (cell number, transfection)
Active means: 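Across duplicate plates, a knock-down whose log firefly/Renilla ratio shifted a set fold down or up from the GFP/LacZ control mean was a hit; the downward cut appears as both 1.5 and 3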
Calls: active = hit: reporter lowered or raised; inactive = no hit
The deposit covers about 24,000 reagents; shown is an unselected part of those with a known target gene and a result. Over the whole deposit, 246 (1%) are marked active. 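Plates not normalised; calls are printed but the firefly/Renilla ratio behind them is not deposited; fold cut for lowering reported inconsistently.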 The raw values are shown without normalisation. Entries without a mark were called inactive. The numbers tell different reagents against one gene apart. Not given: the amount of reagent.

CG12219 #1
- firefly reporter light, replicate 1: 3.30e5
- firefly reporter light, replicate 2: 3.26e5
- Renilla control light, replicate 1: 4.06e6
- Renilla control light, replicate 2: 3.97e6

CG12219 #2
- firefly reporter light, replicate 1: 1.06e6
- firefly reporter light, replicate 2: 1.18e6
- Renilla control light, replicate 1: 1.25e6
- Renilla control light, replicate 2: 1.52e6

Osi18 (Osiris 18)
- firefly reporter light, replicate 1: 29313
- firefly reporter light, replicate 2: 42118
- Renilla control light, replicate 1: 1.09e6
- Renilla control light, replicate 2: 9.31e5

Tm1 (Tropomyosin 1) #1
- firefly reporter light, replicate 1: 66885
- firefly reporter light, replicate 2: 59133
- Renilla control light, replicate 1: 1.15e5
- Renilla control light, replicate 2: 1.17e5

Tm1 (Tropomyosin 1) #2
- firefly reporter light, replicate 1: 1.09e5
- firefly reporter light, replicate 2: 72392
- Renilla control light, replicate 1: 1.86e5
- Renilla control light, replicate 2: 1.66e5

Tm1 (Tropomyosin 1) #3
- firefly reporter light, replicate 1: 1.16e5
- firefly reporter light, replicate 2: 61787
- Renilla control light, replicate 1: 7.48e5
- Renilla control light, replicate 2: 6.98e5

Tm1 (Tropomyosin 1) #4
- firefly reporter light, replicate 1: 2.82e5
- firefly reporter light, replicate 2: 3.16e5
- Renilla control light, replicate 1: 7.66e5
- Renilla control light, replicate 2: 5.73e5

Tm1 (Tropomyosin 1) #5
- firefly reporter light, replicate 1: 6.89e5
- firefly reporter light, replicate 2: 5.06e5
- Renilla control light, replicate 1: 1.23e6
- Renilla control light, replicate 2: 1.42e6

Tdh (L-threonine dehydrogenase)
- firefly reporter light, replicate 1: 45076
- firefly reporter light, replicate 2: 51296
- Renilla control light, replicate 1: 2.67e5
- Renilla control light, replicate 2: 2.70e5

Looked up above.
For “firefly reporter light, replicate 1”, Tdh (L-threonine dehydrogenase) is entered as 45076
Value of CG12219 #1 under “firefly reporter light, replicate 1”: 3.30e5
Entry for Tm1 (Tropomyosin 1) #4 under “firefly reporter light, replicate 2”: 3.16e5
Entry of CG12219 #2 under “Renilla control light, replicate 1”: 1.25e6

More results follow:
CG10333 #1
- firefly reporter light, replicate 1: 6.66e5
- firefly reporter light, replicate 2: 7.61e5
- Renilla control light, replicate 1: 1.65e6
- Renilla control light, replicate 2: 2.02e6

CG10333 #2
- firefly reporter light, replicate 1: 1.07e6
- firefly reporter light, replicate 2: 7.82e5
- Renilla control light, replicate 1: 2.12e6
- Renilla control light, replicate 2: 1.73e6

Rpn12 (Regulatory particle non-ATPase 12) #1
- firefly reporter light, replicate 1: 1.48e5
- firefly reporter light, replicate 2: 1.00e5
- Renilla control light, replicate 1: 8.38e5
- Renilla control light, replicate 2: 7.71e5

Rpn12 (Regulatory particle non-ATPase 12) #2
- firefly reporter light, replicate 1: 4.04e5
- firefly reporter light, replicate 2: 4.07e5
- Renilla control light, replicate 1: 1.05e6
- Renilla control light, replicate 2: 9.73e5

fiz (fezzik)
- firefly reporter light, replicate 1: 96451
- firefly reporter light, replicate 2: 97803
- Renilla control light, replicate 1: 7.12e5
- Renilla control light, replicate 2: 7.20e5

Gpdh1 (Glycerol-3-phosphate dehydrogenase 1) #1
- firefly reporter light, replicate 1: 9.64e5
- firefly reporter light, replicate 2: 9.63e5
- Renilla control light, replicate 1: 1.98e6
- Renilla control light, replicate 2: 1.75e6

Gpdh1 (Glycerol-3-phosphate dehydrogenase 1) #2
- firefly reporter light, replicate 1: 5.74e5
- firefly reporter light, replicate 2: 6.38e5
- Renilla control light, replicate 1: 1.93e6
- Renilla control light, replicate 2: 1.74e6

CG32591
- firefly reporter light, replicate 1: 4.39e5
- firefly reporter light, replicate 2: 3.47e5
- Renilla control light, replicate 1: 4.64e5
- Renilla control light, replicate 2: 3.21e5

Mpi (Mannose phosphate isomerase)
- firefly reporter light, replicate 1: 82631
- firefly reporter light, replicate 2: 80070
- Renilla control light, replicate 1: 1.70e6
- Renilla control light, replicate 2: 1.79e6

AP-1gamma (Adaptor Protein complex 1, gamma subunit)
- firefly reporter light, replicate 1: 1.82e5
- firefly reporter light, replicate 2: 2.41e5
- Renilla control light, replicate 1: 2.29e6
- Renilla control light, replicate 2: 2.86e6

hppy (happyhour) #1
- firefly reporter light, replicate 1: 1.34e5
- firefly reporter light, replicate 2: 1.26e5
- Renilla control light, replicate 1: 1.39e6
- Renilla control light, replicate 2: 1.76e6

hppy (happyhour) #2
- firefly reporter light, replicate 1: 1.09e5
- firefly reporter light, replicate 2: 1.95e5
- Renilla control light, replicate 1: 1.83e6
- Renilla control light, replicate 2: 2.17e6

hppy (happyhour) #3
- firefly reporter light, replicate 1: 76478
- firefly reporter light, replicate 2: 65037
- Renilla control light, replicate 1: 7.57e5
- Renilla control light, replicate 2: 9.22e5

hppy (happyhour) #4
- firefly reporter light, replicate 1: 5.38e5
- firefly reporter light, replicate 2: 4.21e5
- Renilla control light, replicate 1: 1.27e6
- Renilla control light, replicate 2: 1.39e6
